{"source": "paper PMC5428233", "about": "“Cross-beta nanostructures based on dinaphthylalanine Gd-conjugates loaded with doxorubicin” (Scientific Reports, 2017)", "assay": "Water proton relaxation measurements / NMRD profiles", "format": "physicochemical", "settings": "298 K; for τV, correlation time for the collision-related modulation of the ZFS Hamiltonian: fitting of NMRD profile", "excerpt": "The paramagnetic relaxivity (r1p) of Gd (III) complexes is given by:1 r1p∝1/T1MH=Kf(τR) where K is a constant related to the strength of the dipolar interaction between the protons and the electronic magnetic moment, and τR is the correlation time associated with the reorientation of the Gd-H magnetic vector. This means that slowly moving high molecular weight systems are endowed with higher relaxivity than rapidly reorienting low molecular weight ones. In the case of self assembling Gd-containing systems, the extent of aggregation may be evaluated through the measure of the water proton longitudinal relaxation rate of its aqueous solution. In Fig. 8 are reported the NMRD (Nuclear Magnetic Resonance Dispersion) profiles of Gd-2Nal2 acquired at 21.5 MHz (0.5 T) and 298 K as a function of the complex concentration. […] At concentrations higher than 10–15 mg/mL the relaxivity assumes an almost stable value which corresponds to the system in the completely aggregated form. By analyzing the profile of the relaxivity data as a function of the applied field strength (NMRD - Nuclear Magnetic Relaxation Dispersion) it is possible to obtain an accurate determination of the reorientational correlation time (τR)[16], that is strictly related to the molecular size of the investigated system. NMRD profiles were acquired below (black circles) and above (white ones) the CAC values determined by ANS titration and ^1HNMR. […] Data were analyzed using the Solomon-Bloembergen-Morgan model, [18], considering one water molecule in the inner coordination sphere (q = 1) and fixing the exchange lifetime (τM) to a reliable value ([…]) on the basis of those previously reported for mono-amido DOTA derivatives[19]–[22]. The quantitative analysis of the NMRD profile of the aggregated form was not satisfactory when the simple inner- outer-sphere model was used, so the Lipari-Szabo approach was used for the description of the rotational dynamics. This model allows one to take into account the presence ofa certain degree of internal rotation superimposed on the overall tumbling motion, [24]. These two types ofmotion, a relatively fast local rotation of the coordination cage about the linker to the peptide scaffold superimposed on the global reorientation of the system, are characterized by different correlation times: τR ^l and τR ^g, respectively. The degree of correlation between global and local rotations is given by the parameter S^2, which takes values between 0 (completely independent motions) and 1 (entirely correlated motions).\nMeasure of R1 (longitudinal water proton relaxation rates) of Gd-2Nal2 were carried out on a Stelar Spinmaster spectrometer (Pavia, Italy) operating at 0.5 T which corresponds to 21.5 MHz Proton Larmor Frequency. R1 (1/T1) values were measured at 298 K by mean of the standard inversion-recovery technique. For the measure of the proton 1/T1 NMRD (Nuclear Magnetic Resonance Dispersion) profiles, a fast field-cycling Stelar relaxometer, operating over a continuum of magnetic field strengths from 0.00024 to 0.47 T (corresponding to 0.01–20 MHz proton Larmor frequencies) was used. The temperature was set at 298 K. The relaxometer is computer controlled and the absolute uncertainty is 1/T1 ± 1%. Additional data points were obtained on a Stelar Spinmaster spectrometer coupled to an electromagnet tunable at different Larmor Frequencies between 21.5 and 70 MHz. […]", "key": {"[1]": {"settings": "25 mg/mL, Lipari-Szabo approach"}}, "note": "Where a SMILES comes first, the peptide text is derived from it. [ ]: non-standard residue; d: D form. The star is where a group is joined. DOTA = O=C(O)CN1CCN(CC(=O)O)CCN(CC(=O)*)CCN(CC(=O)O)CC1; 2Nal = N[C@@H](Cc1ccc2ccccc2c1)C(=O)O; PEG6 = NCCOCCOCCOCCOCCOCCOCCC(=O)O", "data": [{"smiles": "NC(=O)[C@H](Cc1ccc2ccccc2c1)NC(=O)[C@H](Cc1ccc2ccccc2c1)NC(=O)CCOCCOCCOCCOCCOCCOCCNC(=O)CN1CCN(CC(=O)O)CCN(CC(=O)O)CCN(CC(=O)O)CC1", "note": "[Gd-2Nal2, Gd-DOTA-L6-(2Nal)2] ({DOTA-PEG6}-[2Nal]-[2Nal]-NH2)", "values": [{"measurement": "τR, reorientational correlation time", "setting": "1 mg/mL, Solomon-Bloembergen-Morgan fitting of NMRD profile", "value": 184, "unit": "ps"}, {"measurement": "τV, correlation time for the collision-related modulation of the ZFS Hamiltonian", "setting": "1 mg/mL", "value": 50, "unit": "ps"}, {"measurement": "τR^g, global rotational correlation time", "setting": "[1]", "value": 4800, "unit": "ps"}, {"measurement": "τR^l, local rotational correlation time", "setting": "[1]", "value": 423, "unit": "ps"}, {"measurement": "τV, correlation time for the collision-related modulation of the ZFS Hamiltonian", "setting": "25 mg/mL", "value": 43, "unit": "ps"}]}]}
